Test results from PubChem BioAssay (NCATS).
Inconclusive means that the source gave no clear call. Such entries were picked first, then a sample of the others. A potency beside an inconclusive call is a rough fit, not a confirmed value. Active and inactive are the calls of the source. Calls come from the whole dose curve; as a rule, active = well fitted cell-killing curve with a large enough effect; inconclusive = small, poorly fitted or top-dose-only effect, or effect the other way; inactive = no such curve, though single readings can be large or run the other way.

What was measured:
[1] = Quantitative High-Throughput drug screen in 47 multiple myeloma cell lines against the NCATS MIPE library collection: RPMI8226_ATCC cell viability assay (AID 1919871); settings: RPMI8226 myeloma viability, CellTiter-Glo ATP luminescence, 48 h; viability (% of control): at 45.8 µM (top of the series); note: nearly all actives have a fitted effect of over 30% in size
Procedure, shortened: (§1)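 ATP-based CellTiter-Glo luminescence after 48 h drug exposure (37 °C, 5% CO2) of 500 myeloma cells per well. DMSO-only wells set 100% viability, media-only wells 0%; MIPE 4.0 library added by pin tool.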

[2] = Quantitative High-Throughput drug screen in 47 multiple myeloma cell lines against the NCATS MIPE library collection: OPM2_DSMZ cell viability assay (AID 1919872); settings: OPM2 myeloma viability, CellTiter-Glo ATP luminescence, 48 h; viability (% of DMSO): at 45.8 µM (top of the series); note: nearly all actives have a fitted effect of over 30% in size
Procedure, shortened: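 Steps: seed 500 cells per well; pin-transfer MIPE 4.0 library; incubate 48 h at 37C, 5% CO2, humidified; add CellTiter-Glo, 5 min room temperature; read luminescence.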

[3] = Quantitative High-Throughput drug screen in 47 multiple myeloma cell lines against the NCATS MIPE library collection: KMS28BM_JCRB cell viability assay (AID 1919874); settings: CellTiter-Glo ATP, 48 h; series mostly up to 45.8 µM; note: nearly all actives have a fitted effect of over 35% in size
Procedure, shortened: as §1

[4] = Quantitative High-Throughput drug screen in 47 multiple myeloma cell lines against the NCATS MIPE library collection: KMS11_JCRBsus cell viability assay (AID 1919873); settings: KMS11 myeloma viability, CellTiter-Glo ATP luminescence, 48 h; series mostly up to 45.8 µM; note: nearly all actives have a fitted effect of over 50% in size
Procedure, shortened: as §1
Potency is the fitted concentration of half-maximal effect.

In the case of `CC(C)CN(C[C@@H](O)[C@H](Cc1ccccc1)NC(=O)O[C@H]1CO[C@H]2OCC[C@H]21)S(=O)(=O)c1ccc(N)cc1`, the Potency [1] is reported as inconclusive: 23.5 µM [cytotoxic, partial curve], the Potency [2] is reported as “inactive” and the Potency [3] is reported as inconclusive: 1.05 µM [cytotoxic, full curve, poor fit].
With `CCC(C)(C)C(=O)O[C@H]1C[C@@H](C)C=C2C=C[C@H](C)[C@H](CC[C@@H]3C[C@@H](O)CC(=O)O3)[C@H]21` the Potency [1] was inconclusive: 20.9 µM [cytotoxic, partial curve], the Potency [2] was inconclusive: 18.7 µM [cytotoxic, partial curve] and the Potency [4] was active: 13.2 µM. The Potency [3] was inconclusive: 16.6 µM [cytotoxic, partial curve].
In the case of `COc1cccc(OC)c1-c1cc(C(=O)NC2(C(=O)O)C3CC4CC(C3)CC2C4)nn1-c1ccnc2cc(Cl)ccc12` (stereo unspecified), the Potency [1] is reported as “inactive”, the Potency [2] is reported as inconclusive: 0.0118 µM [cytotoxic, full curve, poor fit] and the Potency [4] is reported as “inactive”. For the same compound, the Potency [3] was “inactive”.
With `C[C@H]1[C@H](O)O[C@@H]2O[C@@]3(C)CC[C@@H]4[C@H](C)CC[C@@H]1[C@@]24OO3` the Potency [1] was active: 1.32 µM, the Potency [2] was inconclusive: 3.72 µM [cytotoxic, full curve] and the Potency [3] was active: 13.2 µM.
In the case of `COc1ccc2c3n(c(=NC(=O)c4cccnc4)nc2c1OC)CCN3`, the Potency [1] is reported as inconclusive: 3.32 µM [cytotoxic, partial curve], the Potency [2] is reported as inconclusive: 20.9 µM [cytotoxic, partial curve] and the Potency [4] is reported as inconclusive: 0.743 µM [cytotoxic, full curve]. For the same compound, the Potency [3] was inconclusive: 14.8 µM [cytotoxic, partial curve].
In the case of `CC(C(C)N1CC(=O)NC(=O)C1)N1CC(=O)NC(=O)C1` (stereo unspecified), the Potency [1] is reported as “inactive”, the Potency [2] is reported as “inactive” and the Potency [4] is reported as “inactive”.
For `Cc1cc(SCc2sc(-c3ccc(C(F)(F)F)cc3)nc2C)ccc1OCC(=O)O`, the Potency [1] was active: 14.8 µM, the Potency [2] was “inactive” and the Potency [4] was inconclusive: 16.6 µM [cytotoxic, single point]. For the same compound, the Potency [3] was inconclusive: 23.5 µM [cytotoxic, partial curve, poor fit].
For `C[C@H](Cn1cnc2c(N)ncnc21)OCP(=O)(O)O`, the Potency [1] was inconclusive: 0.0166 µM [rising, full curve], the Potency [2] was “inactive” and the Potency [4] was “inactive”. The Potency [3] was “inactive”.
With `O=C(CCCN1CCN(c2ccc(F)cc2)CC1)NC1c2ccccc2CSc2ccccc21` (stereo unspecified) the Potency [1] was inconclusive: 16.6 µM [cytotoxic, partial curve], the Potency [2] was inconclusive: 14.8 µM [cytotoxic, partial curve] and the Potency [4] was active: 10.5 µM. For the same compound, the Potency [3] was active: 11.8 µM.
For `Cc1ccc(NC(=O)Nc2cc(C(F)(F)F)ccc2F)cc1Nc1ccc2c(c1)NC(=O)C2=Cc1ccc[nH]1`, the Potency [1] was inconclusive: 37.2 µM [cytotoxic, single point], the Potency [2] was inconclusive: 37.2 µM [cytotoxic, partial curve, poor fit] and the Potency [4] was inconclusive: 18.7 µM [cytotoxic, partial curve, poor fit]. For the same compound, the Potency [3] was inconclusive: 37.2 µM [cytotoxic, single point].
In the case of `CCn1c(-c2nonc2N)nc2cncc(CNC3CCNCC3)c21`, the Potency [1] is reported as inconclusive: 3.72 µM [cytotoxic, partial curve, poor fit], the Potency [2] is reported as inconclusive: 6.62 µM [cytotoxic, partial curve, poor fit] and the Potency [4] is reported as inconclusive: 23.5 µM [cytotoxic, partial curve, poor fit].
In the case of `NC[C@H](O)c1ccc(O)c(O)c1`, the Potency [1] is reported as inconclusive: 23.5 µM [cytotoxic, partial curve, poor fit], the Potency [2] is reported as “inactive” and the Potency [4] is reported as inconclusive: 23.5 µM [cytotoxic, single point]. The Potency [3] was inconclusive: 20.9 µM [cytotoxic, partial curve, poor fit].
For `CN1CC[C@@H](c2c(O)cc(O)c3c(=O)cc(-c4ccccc4Cl)oc23)[C@@H](O)C1`, the Potency [1] was active: 0.235 µM, the Potency [2] was active: 0.118 µM and the Potency [4] was active: 0.0662 µM. For the same compound, the Potency [3] was active: 0.0935 µM.
In the case of `Cc1cc(NC(=O)Nc2ccc(N(C)C)cc2)c2cc(F)cc(F)c2n1`, the Potency [1] is reported as inconclusive: 8.33 µM [cytotoxic, full curve, poor fit], the viability (% of DMSO) [2] is reported as inconclusive: 66.3% [cytotoxic] and the Potency [4] is reported as inconclusive: 6.62 µM [cytotoxic, single point].
